Results are given in words; binding and its absence hold for the method and conditions named. In cells and extracts the contact can be indirect. These calls come from enrichment with a bait or labelling near it, and not all partners need be listed.
Experiments:
Assay in all cases: affinity purification with mass spectrometry; lysates of HEK293 cells transfected with CUL7, V5-OBSL1 or CCDC8, 24 h post-transfection; IP with CUL7, V5 or CCDC8 antibody on protein G Dynabeads; SDS-PAGE, GeLC-MS/MS; proteins found in no antibody control IPs removed; only proteins present in all three IPs kept
CUL7 = CUL7 (UniProt Q14999)
CCDC8 = target: T1, CCDC8 (UniProt Q9H0W5)
T1 sequence: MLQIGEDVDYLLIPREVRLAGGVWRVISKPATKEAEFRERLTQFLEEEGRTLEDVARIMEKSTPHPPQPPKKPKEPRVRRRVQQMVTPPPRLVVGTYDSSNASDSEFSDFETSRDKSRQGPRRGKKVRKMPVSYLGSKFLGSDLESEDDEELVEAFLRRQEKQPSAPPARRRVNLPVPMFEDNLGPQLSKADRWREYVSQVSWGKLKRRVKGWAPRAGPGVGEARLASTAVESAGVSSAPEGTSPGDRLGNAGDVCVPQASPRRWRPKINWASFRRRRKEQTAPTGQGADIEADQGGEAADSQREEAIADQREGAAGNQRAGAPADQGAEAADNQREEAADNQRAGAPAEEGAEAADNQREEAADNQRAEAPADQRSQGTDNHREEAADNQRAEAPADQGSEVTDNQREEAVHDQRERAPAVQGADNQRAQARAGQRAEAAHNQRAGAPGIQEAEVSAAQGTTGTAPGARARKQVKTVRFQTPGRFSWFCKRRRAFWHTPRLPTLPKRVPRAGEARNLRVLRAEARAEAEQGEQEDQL

The chains behind the UniProt entries cited, without tags or fusion partners. Residues count along the entry.
UniProt P53621: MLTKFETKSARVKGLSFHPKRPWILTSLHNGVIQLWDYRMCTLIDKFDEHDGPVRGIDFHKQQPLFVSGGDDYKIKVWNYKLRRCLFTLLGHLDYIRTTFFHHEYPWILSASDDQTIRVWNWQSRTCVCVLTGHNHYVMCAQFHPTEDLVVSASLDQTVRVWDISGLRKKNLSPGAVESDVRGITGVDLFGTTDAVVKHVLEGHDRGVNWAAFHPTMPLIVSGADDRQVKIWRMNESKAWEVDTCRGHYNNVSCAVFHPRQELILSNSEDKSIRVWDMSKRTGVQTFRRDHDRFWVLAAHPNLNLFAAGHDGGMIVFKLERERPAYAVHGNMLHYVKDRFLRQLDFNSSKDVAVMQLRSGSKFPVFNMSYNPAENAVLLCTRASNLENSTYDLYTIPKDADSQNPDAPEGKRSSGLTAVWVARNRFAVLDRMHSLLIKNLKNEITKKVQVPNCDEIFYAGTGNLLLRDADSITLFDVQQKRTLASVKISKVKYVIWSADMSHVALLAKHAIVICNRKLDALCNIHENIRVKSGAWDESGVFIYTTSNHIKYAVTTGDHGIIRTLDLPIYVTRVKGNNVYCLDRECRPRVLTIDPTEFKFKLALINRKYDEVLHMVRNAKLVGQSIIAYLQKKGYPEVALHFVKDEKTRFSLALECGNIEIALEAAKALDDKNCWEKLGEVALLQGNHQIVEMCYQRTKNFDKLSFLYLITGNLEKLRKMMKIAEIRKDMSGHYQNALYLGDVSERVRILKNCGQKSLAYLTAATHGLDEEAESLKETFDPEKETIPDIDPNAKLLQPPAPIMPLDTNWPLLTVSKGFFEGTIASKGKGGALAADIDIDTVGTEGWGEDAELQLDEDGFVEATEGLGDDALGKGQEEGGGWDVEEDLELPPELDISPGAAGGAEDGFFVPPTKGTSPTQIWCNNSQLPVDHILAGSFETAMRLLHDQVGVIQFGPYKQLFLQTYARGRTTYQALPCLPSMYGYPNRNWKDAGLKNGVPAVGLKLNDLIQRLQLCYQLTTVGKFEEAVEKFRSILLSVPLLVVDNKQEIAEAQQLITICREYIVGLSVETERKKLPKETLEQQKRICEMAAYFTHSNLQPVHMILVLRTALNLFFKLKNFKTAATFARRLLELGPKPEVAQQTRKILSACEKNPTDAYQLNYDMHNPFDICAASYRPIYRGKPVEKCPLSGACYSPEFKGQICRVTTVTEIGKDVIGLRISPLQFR
UniProt P17844: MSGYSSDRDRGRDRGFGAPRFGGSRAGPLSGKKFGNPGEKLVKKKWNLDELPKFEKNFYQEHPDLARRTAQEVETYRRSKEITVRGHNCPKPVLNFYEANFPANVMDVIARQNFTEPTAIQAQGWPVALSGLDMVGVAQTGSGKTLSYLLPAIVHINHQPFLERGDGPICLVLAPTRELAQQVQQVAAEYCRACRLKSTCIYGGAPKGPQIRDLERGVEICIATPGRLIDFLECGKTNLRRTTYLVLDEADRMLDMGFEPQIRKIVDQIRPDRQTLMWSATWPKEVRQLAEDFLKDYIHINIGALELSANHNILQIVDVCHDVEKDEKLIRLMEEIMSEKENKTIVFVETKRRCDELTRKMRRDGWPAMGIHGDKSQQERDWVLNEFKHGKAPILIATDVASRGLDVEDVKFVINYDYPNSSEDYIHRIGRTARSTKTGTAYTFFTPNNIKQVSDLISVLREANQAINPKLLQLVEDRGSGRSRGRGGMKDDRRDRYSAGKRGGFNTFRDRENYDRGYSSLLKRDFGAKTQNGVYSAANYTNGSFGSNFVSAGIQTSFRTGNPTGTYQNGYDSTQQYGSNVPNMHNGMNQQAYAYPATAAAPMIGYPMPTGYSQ
UniProt P68104: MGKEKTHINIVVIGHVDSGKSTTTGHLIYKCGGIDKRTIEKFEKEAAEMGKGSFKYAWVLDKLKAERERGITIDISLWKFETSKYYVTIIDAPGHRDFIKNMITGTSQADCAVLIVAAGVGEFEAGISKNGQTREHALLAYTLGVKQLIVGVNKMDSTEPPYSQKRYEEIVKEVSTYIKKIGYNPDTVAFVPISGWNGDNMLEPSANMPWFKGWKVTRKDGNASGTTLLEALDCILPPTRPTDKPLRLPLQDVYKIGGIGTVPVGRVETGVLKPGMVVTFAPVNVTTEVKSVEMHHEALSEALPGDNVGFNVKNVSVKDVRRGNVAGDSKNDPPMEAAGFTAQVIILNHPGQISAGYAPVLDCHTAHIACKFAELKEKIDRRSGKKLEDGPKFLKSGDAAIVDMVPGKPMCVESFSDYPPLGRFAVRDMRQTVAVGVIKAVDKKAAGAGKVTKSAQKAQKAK
UniProt Q15717: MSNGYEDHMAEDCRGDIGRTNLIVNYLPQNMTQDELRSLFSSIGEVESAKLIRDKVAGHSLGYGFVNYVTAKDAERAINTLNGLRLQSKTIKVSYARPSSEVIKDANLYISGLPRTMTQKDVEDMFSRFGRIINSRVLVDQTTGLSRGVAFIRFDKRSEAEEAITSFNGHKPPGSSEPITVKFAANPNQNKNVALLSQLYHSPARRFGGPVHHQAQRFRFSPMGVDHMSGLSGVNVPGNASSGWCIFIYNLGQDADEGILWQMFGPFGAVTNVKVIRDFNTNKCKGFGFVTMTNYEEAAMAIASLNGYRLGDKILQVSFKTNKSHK
UniProt P06733: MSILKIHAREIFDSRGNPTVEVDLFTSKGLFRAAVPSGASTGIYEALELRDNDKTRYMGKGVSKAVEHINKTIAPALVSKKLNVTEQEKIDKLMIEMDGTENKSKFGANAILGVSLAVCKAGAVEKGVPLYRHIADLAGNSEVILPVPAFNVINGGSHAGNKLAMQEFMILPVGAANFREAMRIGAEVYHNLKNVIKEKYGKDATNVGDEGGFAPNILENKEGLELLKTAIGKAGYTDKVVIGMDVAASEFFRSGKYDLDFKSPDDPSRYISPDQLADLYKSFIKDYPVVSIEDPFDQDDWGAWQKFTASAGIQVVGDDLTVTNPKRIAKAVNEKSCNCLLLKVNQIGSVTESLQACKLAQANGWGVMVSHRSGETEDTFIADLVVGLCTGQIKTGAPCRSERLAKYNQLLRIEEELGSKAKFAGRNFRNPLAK
UniProt P04406: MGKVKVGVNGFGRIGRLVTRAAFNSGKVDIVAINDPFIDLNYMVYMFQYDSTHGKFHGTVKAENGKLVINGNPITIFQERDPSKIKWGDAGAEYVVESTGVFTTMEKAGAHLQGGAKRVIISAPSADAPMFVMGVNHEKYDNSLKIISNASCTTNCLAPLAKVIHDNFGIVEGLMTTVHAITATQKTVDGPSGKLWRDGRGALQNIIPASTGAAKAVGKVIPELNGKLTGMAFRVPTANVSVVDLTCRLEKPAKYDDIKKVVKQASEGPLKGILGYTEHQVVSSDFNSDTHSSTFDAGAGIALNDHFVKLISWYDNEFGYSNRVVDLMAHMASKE
UniProt P14625, residues 22-803: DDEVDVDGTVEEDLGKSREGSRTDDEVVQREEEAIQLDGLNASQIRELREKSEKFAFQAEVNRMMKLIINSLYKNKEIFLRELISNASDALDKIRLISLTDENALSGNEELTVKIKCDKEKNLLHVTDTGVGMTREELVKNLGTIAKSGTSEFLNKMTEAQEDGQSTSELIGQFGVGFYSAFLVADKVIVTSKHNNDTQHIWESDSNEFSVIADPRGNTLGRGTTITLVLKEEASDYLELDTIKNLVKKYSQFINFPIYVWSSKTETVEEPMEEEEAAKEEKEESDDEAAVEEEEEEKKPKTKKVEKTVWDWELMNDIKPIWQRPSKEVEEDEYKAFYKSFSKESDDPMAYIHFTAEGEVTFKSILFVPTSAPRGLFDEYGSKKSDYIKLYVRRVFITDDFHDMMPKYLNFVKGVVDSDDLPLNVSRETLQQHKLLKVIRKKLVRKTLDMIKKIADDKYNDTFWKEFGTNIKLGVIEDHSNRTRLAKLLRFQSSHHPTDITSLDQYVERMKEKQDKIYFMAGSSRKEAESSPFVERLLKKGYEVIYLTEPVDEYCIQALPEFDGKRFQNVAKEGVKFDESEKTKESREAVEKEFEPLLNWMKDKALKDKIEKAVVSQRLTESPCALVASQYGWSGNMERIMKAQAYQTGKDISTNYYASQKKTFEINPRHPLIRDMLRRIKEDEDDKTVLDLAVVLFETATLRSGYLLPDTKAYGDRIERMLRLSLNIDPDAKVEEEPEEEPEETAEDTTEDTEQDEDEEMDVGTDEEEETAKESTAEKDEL
UniProt P46940: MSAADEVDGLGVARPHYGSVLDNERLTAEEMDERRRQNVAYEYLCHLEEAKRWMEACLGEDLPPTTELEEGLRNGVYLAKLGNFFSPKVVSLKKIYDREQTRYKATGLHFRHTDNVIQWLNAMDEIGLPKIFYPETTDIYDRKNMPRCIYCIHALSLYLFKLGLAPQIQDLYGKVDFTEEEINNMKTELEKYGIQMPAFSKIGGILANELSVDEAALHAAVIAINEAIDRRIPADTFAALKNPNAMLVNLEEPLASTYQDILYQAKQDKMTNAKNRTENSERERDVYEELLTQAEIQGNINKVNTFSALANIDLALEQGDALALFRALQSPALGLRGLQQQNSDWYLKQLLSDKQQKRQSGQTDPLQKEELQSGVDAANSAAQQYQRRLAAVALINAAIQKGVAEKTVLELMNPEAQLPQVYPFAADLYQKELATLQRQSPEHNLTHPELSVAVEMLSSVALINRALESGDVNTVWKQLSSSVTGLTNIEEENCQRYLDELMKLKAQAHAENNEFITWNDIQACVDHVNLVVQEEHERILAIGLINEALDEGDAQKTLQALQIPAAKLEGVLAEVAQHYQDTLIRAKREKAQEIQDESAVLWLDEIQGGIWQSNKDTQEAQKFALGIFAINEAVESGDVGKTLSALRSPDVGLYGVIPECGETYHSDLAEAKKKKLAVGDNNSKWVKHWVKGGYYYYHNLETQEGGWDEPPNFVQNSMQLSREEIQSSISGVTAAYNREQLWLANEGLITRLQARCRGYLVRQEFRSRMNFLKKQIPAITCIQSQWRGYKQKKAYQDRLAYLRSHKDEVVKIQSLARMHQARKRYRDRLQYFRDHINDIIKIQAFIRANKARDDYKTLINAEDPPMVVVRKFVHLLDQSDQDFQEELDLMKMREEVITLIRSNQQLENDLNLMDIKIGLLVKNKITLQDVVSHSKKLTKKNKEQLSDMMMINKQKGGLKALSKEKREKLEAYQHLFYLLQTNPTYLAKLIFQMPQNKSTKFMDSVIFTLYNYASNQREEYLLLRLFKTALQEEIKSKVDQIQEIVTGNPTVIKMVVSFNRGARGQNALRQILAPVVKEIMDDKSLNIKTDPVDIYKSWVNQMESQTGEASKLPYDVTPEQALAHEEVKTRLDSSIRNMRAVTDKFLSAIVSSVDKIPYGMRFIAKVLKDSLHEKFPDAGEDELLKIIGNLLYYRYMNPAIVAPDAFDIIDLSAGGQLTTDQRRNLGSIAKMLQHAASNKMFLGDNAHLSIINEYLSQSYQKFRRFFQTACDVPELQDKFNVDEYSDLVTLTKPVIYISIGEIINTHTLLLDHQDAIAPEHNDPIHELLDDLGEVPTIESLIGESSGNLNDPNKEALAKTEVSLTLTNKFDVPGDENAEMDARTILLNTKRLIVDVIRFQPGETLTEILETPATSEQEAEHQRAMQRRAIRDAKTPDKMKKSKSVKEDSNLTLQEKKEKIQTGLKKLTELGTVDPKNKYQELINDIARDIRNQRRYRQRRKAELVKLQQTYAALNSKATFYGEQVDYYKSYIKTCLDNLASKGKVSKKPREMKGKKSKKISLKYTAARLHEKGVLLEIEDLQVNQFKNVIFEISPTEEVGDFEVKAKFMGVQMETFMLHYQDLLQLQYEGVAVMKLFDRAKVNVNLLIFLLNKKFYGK
UniProt P13647: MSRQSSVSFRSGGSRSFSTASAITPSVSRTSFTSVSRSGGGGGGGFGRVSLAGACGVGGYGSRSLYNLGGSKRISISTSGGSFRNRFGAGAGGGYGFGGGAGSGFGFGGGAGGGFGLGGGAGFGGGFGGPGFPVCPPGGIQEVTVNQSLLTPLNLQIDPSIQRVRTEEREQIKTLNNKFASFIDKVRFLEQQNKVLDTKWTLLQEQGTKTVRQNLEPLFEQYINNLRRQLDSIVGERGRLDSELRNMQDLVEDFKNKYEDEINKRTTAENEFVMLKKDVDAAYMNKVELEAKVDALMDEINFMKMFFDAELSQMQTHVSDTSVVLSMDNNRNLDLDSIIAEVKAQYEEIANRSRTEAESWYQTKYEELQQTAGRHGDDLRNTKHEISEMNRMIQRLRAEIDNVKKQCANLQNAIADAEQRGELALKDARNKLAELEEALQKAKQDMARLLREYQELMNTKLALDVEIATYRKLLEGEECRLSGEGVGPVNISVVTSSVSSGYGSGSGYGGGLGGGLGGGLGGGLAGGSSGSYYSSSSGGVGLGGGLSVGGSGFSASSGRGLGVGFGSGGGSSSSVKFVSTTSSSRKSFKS

V5-OBSL1 = V5-OBSL1 (UniProt O75147)

binding (CUL7) | binding (CCDC8) | binding (V5-OBSL1) | Substance
binds | binds | binds | ACTN4 (from UniProt O43707 1-911)
binds | binds | binds | ATP5B (from UniProt P06576 48-529)
binds | binds | binds | CAD (from UniProt P27708 1-2225)
binds | binds | binds | CCT8 (from UniProt P50990 1-548)
binds | binds | binds | CLTC (from UniProt Q00610 1-1675)
binds | binds | binds | COPA (from UniProt P53621 1-1224)
binds | binds | binds | DDX5 (from UniProt P17844 1-614)
binds | binds | binds | DSG2 (from UniProt Q14126 50-1118)
binds | binds | binds | DSP (from UniProt P15924 1-2871)
binds | binds | binds | DYNC1H1 (from UniProt Q14204 1-4646)
binds | binds | binds | EEF1A1 (from UniProt P68104 1-462)
binds | binds | binds | EEF1G (from UniProt P26641 1-437)
binds | binds | binds | EIF4A1 (from UniProt P60842 1-406)
binds | binds | binds | ELAVL1 (from UniProt Q15717 1-326)
binds | binds | binds | ENO1 (from UniProt P06733 1-434)
binds | binds | binds | FLNA (from UniProt P21333 1-2647)
binds | binds | binds | GAPDH (from UniProt P04406 1-335)
binds | binds | binds | HDAC2 (from UniProt Q92769 1-488)
binds | binds | binds | HNRNPH1 (from UniProt P31943 1-449)
binds | binds | binds | HSP90AB1 (from UniProt P08238 1-724)
binds | binds | binds | HSP90B1 (from UniProt P14625 22-803)
binds | binds | binds | HSPA5 (from UniProt P11021 19-654)
binds | binds | binds | HSPA9 (from UniProt P38646 47-679)
binds | binds | binds | HSPD1 (from UniProt P10809 27-573)
binds | binds | binds | IGF2BP3 (from UniProt O00425 1-579)
binds | binds | binds | IQGAP1 (from UniProt P46940 1-1657)
binds | binds | binds | KPNB1 (from UniProt Q14974 1-876)
binds | binds | binds | KRT5 (from UniProt P13647 1-590)
– | binds | binds | TP53 (from UniProt P04637 1-393)

— article PMC4045235
